The target in series [1] is T1, Ago1p (WT) (Naumovozyma castellii) (UniProt D5SHI8).
T1 sequence (looked up): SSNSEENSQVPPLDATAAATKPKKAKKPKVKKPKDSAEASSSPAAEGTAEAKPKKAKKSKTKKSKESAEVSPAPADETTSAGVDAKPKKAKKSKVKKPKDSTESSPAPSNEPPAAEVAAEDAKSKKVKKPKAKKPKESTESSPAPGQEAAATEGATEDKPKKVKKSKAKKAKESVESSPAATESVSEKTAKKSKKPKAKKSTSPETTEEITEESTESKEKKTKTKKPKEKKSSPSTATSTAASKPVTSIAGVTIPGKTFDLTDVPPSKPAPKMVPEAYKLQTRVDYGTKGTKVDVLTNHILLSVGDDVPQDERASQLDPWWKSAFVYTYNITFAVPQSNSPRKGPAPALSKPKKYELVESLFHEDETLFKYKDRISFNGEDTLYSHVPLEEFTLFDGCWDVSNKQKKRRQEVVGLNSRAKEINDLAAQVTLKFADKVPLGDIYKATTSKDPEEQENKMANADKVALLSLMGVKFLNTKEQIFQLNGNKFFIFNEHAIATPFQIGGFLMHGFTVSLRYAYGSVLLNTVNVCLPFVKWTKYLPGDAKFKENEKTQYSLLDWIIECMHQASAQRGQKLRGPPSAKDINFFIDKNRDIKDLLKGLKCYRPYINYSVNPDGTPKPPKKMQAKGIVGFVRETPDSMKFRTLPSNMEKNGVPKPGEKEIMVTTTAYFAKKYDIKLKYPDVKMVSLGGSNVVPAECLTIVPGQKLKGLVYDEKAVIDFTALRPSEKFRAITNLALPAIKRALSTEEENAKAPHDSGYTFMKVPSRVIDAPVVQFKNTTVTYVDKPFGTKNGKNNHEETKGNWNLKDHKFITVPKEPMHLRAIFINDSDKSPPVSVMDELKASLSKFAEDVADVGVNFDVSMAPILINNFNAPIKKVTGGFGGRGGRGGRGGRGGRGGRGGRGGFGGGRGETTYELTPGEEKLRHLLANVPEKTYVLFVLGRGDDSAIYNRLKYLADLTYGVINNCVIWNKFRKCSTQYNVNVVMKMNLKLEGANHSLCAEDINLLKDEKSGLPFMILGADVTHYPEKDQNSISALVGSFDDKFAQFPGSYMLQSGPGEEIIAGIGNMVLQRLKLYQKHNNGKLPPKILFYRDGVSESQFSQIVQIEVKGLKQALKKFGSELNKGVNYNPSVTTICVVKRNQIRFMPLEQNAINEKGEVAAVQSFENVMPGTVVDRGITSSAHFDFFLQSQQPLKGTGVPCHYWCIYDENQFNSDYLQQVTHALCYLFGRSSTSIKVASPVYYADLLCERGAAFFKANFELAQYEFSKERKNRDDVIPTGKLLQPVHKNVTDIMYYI
Nature of the series: filter binding (nitrocellulose-nylon). To be noted: 100 nM Ago1p, 5 mM Mg2+, capped target RNA and tRNA present, no Xrn1p; 50 mM Hepes pH 7.6, 300 mM potassium glutamate, 10 mM NaCl, 5 mM Mg acetate, 1 mM EGTA, 1 mM EDTA, 10% glycerol, 0.01% NP-40, 5 mM DTT, 30 C; recombinant protein; residues 2-1299; label: 32P 5' end of guide strand (S68).

Series [2] addresses T1, Ago1p (WT) (Naumovozyma castellii). Nature of the series: pull-down (RISC affinity capture). To be noted: RISC loaded with miR-20a guide, eluted with competitor oligo, 300 mM glutamate/NP40 buffer; S72 all 2'-O-methyl RNA; S68 unmodified RNA; 50 mM Hepes pH 7.6, 300 mM potassium glutamate, 10 mM NaCl, 5 mM Mg acetate, 1 mM EGTA, 1 mM EDTA, 10% glycerol, 0.01% NP-40, 5 mM DTT, 30 C; recombinant protein; residues 2-1299; label: 3'-biotin on S72, radiolabelled guide; synthetic backbone.

The exact form of at least one protein or probe is not confirmed. At least one verdict rests on a figure or table, not on a statement of the authors. Where a protein sequence is shown, tags need not be part of it.

For “UAAAGUGCUUAUAGUGCAGGUAG / ACCUGCACUAUAAGCACUUUAAG [miR-20a siRNA duplex]”, the binding result in series [1] is reported as “binds”.

For the sequence “UAAAGUGCUUAUAGUGCAGGUAG / CUCACCUUCUACACCACCGCACUUUAUCCUUACACAC”, the binding result in series [2] is “binds”.

The values above are taken from publication PMC7528652, “Xrn1p acts at multiple steps in the budding-yeast RNAi pathway to enhance the efficiency of silencing”.
